Measurements as given in patent US9017950B2, “Method for enhancing enzyme assays” (Luminescent MD, LLC, priority 2011, dated 2015).
Some entries share one result that the patent states for a list of compounds.

Biological target: T1, PSA detection antibody-HRP conjugate (Armoracia rusticana, UniProt P00433)
T1 construct: PSA detection antibody (conjugated)
T1 sequence (P00433 31-338 limits assumed): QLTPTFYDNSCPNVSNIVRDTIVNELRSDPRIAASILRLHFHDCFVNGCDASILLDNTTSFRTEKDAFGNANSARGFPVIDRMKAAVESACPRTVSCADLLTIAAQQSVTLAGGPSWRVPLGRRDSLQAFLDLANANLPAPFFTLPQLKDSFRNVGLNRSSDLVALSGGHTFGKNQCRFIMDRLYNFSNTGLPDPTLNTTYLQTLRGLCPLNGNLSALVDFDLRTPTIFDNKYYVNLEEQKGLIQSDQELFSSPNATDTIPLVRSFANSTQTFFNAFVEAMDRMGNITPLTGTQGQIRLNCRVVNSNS
Test: Quantification of PSA using PSA detection antibody-HRP conjugate and OD4MI CL detection (CLEIA) in the presence of catalyst
Assay type: biochemical
Conditions: FIG. 2
Procedure: AccuLite® CLIA kit capable of quantifying PSA with luminol CL detection was used to develop new CLEIA method using ODI derivative CL detection. The kit is composed of 96 strip wells coated with monoclonal PSA primary antibody, PSA detection antibody-HRP conjugate, luminol as a substrate, reaction buffer, and washing buffer.
8 different PSA serum samples (0, 0.5, 1, 2, 5, 10, 25, 50 ng/ml), components of AccuLite® CLIA kit, were used as standard samples.
2.0 μM Amplex® Red reagent and 0.2 mM H2O2 in deionized water were prepared as described in Example 1 (A).
0.5 mM 4-Iodophenol was prepared in Tris-HCl buffer solution (pH 8.5).
2.0 mM 4-(1,2,4-triazol-1-yl) phenol was prepared in Tris-HCl buffer solution (pH 8.5).
0.8 ml of aqueous solution containing Amplex® Red reagent (2.0 μM) and H2O2 (0.2 mM) was mixed with 0.2 ml of 4-Iodophenol (or 2.0 mM 4-(1,2,4-triazol-1-yl) phenol).
OD4MI was formed from the reaction between 5.0 μM TCPO and 10.0 μM 4-Methylimidazole (4MImH) in Ethyl acetate. 100 mM H2O2 was prepared in Isopropyl alcohol.
• 12. Pipette 25 μl of PSA standard or test sample into a strip well. • 13. Add 100 μl of PSA detection antibody-HRP conjugate to the strip well • 14. Swirl the strip wells for 20 seconds. • 15. […] Read (integration time: 0.5 seconds) emitted CL for 0.5 seconds when OD4MI and H2O2 are added into the test tube or strip well through two dispensers.

Oc1ccc(I)cc1 [4-Iodophenol]
dynamic range of PSA calibration: 0˜50 ng/ml
